The values below come from the supplement of paper PMC10849652.

By UniProt entry, the sequences of proteins in these tests, tags left out. Where a name states a change or a piece, a line headed by the entry shows the natural chain unless it says otherwise.
UniProt Q13011: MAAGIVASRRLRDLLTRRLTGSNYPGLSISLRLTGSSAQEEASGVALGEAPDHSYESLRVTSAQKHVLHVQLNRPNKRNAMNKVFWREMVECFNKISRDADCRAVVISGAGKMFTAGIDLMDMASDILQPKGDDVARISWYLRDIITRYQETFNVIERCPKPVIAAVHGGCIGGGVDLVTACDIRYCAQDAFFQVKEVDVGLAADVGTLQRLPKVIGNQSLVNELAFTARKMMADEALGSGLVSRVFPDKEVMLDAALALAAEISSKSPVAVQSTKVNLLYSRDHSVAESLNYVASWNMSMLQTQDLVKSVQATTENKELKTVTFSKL
UniProt Q9BVJ7: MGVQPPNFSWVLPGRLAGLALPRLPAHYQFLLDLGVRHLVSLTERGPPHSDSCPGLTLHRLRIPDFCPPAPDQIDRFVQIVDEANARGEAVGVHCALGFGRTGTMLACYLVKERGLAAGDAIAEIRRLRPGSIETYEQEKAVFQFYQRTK
UniProt Q9NP97, whole entry, looked up: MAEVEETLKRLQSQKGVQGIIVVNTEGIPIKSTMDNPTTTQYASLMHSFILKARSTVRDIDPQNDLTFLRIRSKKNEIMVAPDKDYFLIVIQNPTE
UniProt P29692: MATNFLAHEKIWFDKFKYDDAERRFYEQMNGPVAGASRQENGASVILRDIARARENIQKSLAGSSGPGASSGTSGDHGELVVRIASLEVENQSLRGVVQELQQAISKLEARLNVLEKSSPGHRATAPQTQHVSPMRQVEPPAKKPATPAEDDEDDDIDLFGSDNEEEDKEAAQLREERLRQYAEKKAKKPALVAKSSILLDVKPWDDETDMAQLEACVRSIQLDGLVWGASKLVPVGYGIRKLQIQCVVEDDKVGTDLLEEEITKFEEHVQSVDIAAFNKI
UniProt P33316: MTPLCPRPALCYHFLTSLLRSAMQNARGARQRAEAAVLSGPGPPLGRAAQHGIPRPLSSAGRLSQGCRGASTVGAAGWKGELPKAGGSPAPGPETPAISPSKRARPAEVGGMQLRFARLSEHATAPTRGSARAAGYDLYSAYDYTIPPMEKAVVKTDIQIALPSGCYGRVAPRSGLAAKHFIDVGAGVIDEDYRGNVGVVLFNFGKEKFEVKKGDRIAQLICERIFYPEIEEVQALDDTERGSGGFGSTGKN
UniProt P51452: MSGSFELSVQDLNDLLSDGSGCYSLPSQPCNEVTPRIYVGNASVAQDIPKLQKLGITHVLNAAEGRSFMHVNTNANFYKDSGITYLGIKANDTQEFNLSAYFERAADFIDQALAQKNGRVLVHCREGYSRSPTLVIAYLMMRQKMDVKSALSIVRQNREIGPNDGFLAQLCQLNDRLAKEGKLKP
UniProt Q14204, whole entry, looked up: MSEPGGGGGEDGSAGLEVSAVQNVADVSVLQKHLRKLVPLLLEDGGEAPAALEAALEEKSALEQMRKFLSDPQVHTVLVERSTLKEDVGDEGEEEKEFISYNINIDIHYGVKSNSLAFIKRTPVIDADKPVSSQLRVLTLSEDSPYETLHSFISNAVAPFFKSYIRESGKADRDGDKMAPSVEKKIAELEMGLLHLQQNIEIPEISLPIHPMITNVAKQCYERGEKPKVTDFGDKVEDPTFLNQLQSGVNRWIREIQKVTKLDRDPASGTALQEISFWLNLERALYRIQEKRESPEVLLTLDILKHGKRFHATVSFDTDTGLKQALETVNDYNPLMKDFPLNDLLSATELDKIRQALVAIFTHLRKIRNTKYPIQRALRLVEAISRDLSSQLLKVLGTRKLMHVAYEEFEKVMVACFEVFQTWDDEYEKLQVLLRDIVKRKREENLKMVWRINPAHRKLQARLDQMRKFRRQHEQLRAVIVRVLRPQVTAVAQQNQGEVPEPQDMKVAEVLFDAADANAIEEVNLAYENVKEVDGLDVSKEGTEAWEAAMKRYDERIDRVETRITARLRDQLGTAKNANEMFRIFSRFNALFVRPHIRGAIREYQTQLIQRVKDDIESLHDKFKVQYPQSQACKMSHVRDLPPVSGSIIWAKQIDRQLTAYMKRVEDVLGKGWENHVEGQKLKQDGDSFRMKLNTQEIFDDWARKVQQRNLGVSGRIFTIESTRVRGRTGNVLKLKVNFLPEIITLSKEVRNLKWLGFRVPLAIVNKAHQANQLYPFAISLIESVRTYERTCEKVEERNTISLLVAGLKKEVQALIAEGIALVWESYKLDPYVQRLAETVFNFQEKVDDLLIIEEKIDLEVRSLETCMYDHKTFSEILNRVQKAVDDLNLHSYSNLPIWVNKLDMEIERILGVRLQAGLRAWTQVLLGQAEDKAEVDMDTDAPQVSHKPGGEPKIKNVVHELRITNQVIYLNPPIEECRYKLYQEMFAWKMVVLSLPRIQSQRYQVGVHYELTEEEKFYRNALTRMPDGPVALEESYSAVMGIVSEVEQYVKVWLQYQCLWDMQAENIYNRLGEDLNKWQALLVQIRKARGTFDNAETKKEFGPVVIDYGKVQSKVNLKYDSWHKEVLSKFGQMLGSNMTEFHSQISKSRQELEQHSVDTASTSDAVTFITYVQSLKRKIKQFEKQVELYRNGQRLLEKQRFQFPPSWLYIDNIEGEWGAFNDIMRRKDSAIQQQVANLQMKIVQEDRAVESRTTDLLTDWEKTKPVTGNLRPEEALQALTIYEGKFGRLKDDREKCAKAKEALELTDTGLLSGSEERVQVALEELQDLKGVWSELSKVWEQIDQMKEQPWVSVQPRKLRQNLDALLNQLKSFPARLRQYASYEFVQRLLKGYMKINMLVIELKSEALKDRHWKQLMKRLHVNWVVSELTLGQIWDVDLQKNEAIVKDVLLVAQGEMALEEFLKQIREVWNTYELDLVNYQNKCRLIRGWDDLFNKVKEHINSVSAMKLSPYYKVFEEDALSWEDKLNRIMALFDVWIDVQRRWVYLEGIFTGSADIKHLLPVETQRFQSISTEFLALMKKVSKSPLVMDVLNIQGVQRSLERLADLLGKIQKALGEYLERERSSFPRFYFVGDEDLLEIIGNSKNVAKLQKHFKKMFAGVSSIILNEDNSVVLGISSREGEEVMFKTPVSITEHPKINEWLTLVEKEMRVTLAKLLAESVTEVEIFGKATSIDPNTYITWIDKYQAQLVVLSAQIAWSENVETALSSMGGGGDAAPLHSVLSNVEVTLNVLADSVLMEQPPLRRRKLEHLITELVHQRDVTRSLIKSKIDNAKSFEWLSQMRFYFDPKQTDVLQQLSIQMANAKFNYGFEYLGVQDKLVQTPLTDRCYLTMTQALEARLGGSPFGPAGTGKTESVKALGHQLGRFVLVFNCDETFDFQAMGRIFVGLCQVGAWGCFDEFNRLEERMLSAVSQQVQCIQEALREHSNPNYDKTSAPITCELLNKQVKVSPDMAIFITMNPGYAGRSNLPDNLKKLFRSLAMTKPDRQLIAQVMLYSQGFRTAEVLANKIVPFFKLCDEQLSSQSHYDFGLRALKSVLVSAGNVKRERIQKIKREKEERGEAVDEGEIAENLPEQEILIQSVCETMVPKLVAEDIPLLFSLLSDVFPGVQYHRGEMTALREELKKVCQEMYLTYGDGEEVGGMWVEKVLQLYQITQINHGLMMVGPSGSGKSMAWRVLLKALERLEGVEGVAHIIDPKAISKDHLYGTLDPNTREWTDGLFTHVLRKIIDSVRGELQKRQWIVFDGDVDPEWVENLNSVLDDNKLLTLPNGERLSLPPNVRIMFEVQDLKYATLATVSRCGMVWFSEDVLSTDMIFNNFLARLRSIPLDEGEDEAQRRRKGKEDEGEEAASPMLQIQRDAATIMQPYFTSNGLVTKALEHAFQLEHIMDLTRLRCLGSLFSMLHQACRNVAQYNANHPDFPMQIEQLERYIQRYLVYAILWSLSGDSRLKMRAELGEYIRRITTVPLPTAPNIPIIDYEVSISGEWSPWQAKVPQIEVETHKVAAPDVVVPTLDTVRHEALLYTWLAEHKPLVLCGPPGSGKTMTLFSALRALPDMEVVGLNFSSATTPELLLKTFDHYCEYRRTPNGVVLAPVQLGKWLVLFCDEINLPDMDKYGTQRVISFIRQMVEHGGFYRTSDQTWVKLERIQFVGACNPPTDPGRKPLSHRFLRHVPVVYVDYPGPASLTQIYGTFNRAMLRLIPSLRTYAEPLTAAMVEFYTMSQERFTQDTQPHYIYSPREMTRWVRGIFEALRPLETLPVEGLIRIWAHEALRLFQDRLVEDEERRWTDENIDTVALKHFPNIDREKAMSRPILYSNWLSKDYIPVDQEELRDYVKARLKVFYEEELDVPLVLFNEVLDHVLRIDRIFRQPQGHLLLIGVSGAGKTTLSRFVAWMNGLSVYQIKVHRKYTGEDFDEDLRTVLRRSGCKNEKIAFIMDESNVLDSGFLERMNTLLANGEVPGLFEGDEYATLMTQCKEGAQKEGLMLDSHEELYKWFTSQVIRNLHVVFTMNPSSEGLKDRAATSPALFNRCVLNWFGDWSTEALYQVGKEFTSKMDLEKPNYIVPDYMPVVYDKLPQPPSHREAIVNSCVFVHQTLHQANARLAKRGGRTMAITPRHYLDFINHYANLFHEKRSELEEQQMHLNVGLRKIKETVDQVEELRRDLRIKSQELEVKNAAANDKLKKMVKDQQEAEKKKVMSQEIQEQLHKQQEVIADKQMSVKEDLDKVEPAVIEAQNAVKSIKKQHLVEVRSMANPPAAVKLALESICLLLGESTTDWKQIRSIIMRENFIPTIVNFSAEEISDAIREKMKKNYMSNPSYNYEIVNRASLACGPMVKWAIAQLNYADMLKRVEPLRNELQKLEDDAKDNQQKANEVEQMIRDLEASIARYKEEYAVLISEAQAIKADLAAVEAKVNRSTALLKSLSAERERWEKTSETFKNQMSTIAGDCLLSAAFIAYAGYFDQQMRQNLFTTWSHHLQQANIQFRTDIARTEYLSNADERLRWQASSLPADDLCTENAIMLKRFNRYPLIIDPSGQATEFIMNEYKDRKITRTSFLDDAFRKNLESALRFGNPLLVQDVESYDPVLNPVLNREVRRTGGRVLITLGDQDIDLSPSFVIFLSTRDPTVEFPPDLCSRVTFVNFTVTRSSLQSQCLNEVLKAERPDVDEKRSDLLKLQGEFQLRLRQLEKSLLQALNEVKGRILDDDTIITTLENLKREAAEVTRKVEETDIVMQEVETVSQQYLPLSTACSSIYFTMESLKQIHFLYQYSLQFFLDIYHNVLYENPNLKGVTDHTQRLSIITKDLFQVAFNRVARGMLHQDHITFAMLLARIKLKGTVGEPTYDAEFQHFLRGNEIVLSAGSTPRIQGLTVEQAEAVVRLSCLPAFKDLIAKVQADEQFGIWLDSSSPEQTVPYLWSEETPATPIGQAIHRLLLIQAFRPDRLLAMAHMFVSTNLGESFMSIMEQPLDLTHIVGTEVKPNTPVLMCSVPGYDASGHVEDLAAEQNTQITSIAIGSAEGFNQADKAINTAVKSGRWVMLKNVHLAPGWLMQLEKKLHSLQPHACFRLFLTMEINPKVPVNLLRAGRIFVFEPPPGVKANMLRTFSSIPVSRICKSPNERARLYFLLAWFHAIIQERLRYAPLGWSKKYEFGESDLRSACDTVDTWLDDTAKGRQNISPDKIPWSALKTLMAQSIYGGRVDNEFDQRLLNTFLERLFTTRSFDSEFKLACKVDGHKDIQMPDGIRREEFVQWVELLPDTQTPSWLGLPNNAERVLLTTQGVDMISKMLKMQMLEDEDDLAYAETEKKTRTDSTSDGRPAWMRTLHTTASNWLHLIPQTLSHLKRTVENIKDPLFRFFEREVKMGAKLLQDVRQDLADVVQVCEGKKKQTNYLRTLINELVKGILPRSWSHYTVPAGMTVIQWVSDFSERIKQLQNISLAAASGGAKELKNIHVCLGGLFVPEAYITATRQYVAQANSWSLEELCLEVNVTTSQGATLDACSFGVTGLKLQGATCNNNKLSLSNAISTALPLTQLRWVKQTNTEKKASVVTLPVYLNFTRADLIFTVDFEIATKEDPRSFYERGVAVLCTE
UniProt Q8N9N8: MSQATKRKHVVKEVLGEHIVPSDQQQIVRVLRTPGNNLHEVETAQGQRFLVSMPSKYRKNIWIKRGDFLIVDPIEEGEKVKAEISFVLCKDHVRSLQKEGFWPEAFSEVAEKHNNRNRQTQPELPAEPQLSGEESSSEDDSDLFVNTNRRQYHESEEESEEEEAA
UniProt Q99848: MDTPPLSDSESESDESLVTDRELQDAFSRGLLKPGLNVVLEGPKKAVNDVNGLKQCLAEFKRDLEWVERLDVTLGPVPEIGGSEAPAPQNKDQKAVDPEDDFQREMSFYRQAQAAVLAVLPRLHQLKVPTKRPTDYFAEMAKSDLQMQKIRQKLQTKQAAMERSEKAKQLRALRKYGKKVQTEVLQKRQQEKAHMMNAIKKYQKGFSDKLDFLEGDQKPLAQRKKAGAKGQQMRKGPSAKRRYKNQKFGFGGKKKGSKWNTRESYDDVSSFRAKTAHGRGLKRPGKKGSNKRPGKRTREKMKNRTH
UniProt O43324: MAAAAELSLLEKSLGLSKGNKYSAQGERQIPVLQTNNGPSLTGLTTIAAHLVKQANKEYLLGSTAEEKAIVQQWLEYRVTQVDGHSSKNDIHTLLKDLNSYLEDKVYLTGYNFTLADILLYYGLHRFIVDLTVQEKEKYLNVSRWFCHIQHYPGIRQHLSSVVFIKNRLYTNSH

Some of the results follow.

Compound in one test: CC1=C(C2=C(C=C1)C(=O)C3=CC=CC=C3N2CCCN)C
In words: log2 fold change, soluble protein after heating vs DMSO (PISA); higher = thermal stabilisation; K562 lysate, 10 uM; active = over 0.2 and 3.5 SD of the protein, either way, in both replicates (recomputed). A digest of the protocol: (§1)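 Log-two fold change in thermal stability relative to solvent controls is reported from duplicates. For each sample, crude K562 extract from dounce-homogenised pellets in PBS pH 7.4 with 1 mM MgCl2, at 1 mg/mL protein, was treated with 10 μM compound for 30 min. Aliquots heated for 3 min across 48°C-58°C were pooled, brought to 0.5% NP-40 at 4°C and cleared at 21,000xg for 90 min. The supernatant was quantified by TMTpro 16plex LC-MS/MS with channel sums equalised.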
With DPH7 (UniProt Q9BTV6), the log2 fold change was inactive: 0.031.
Still for that read-out and setting: the result for ECH1 (UniProt Q13011) reads inactive: -0.02.
As for DUSP23 (UniProt Q9BVJ7), the log2 fold change is inactive: 0.013.
The same measure, in the same setting: the result for DYNLRB1 (UniProt Q9NP97) reads inactive: 0.016; that for DPP9 isoform 2 (UniProt Q86TI2), inactive: -0.004.
The same measure, in the same setting: with DPP7 (UniProt Q9UHL4) the figure was inactive: -0.044.
With EEF1D isoform 2 (UniProt P29692), the log2 fold change is inactive: 0.021.
Still for that read-out and setting: the result for EEF1B2 (UniProt P24534) reads inactive: 0.02; that for DUT (UniProt P33316), inactive: -0.027; that for EED, A0A5F9ZI63, inactive: -0.003.
Turning to DPH6 (UniProt Q7L8W6), the log2 fold change was inactive: 0.
As to ECT2 (UniProt Q9H8V3), the log2 fold change is inactive: -0.015.
Still for that read-out and setting: the result for DUSP3 (UniProt P51452) reads inactive: -0.025.
In the case of DYNC1H1 (UniProt Q14204), the log2 fold change was inactive: 0.017.
On the same count and under the same terms, with EIF1AD (UniProt Q8N9N8) the figure was inactive: -0.017; with ECI2 (UniProt O75521), inactive: -0.008.
The same measure, in the same setting: the result for EBNA1BP2 (UniProt Q99848) reads inactive: -0.021.

Compound in the next test: CC1=C(C=C(C=C1)NC(=O)C2=CC(=CC=C2)C(C)(C)C#N)NC3=CC4=C(C=C3)N=CN(C4=O)C
The test is described as above. A digest of the protocol: as §1
Consider EIF1B (UniProt O60739), for which the log2 fold change is inactive: 0.304.
Same read-out and setting: the result for EDF1 (UniProt O60869) reads inactive: -0.014; that for DRAP1 isoform 2 (UniProt Q14919), inactive: -0.001.
Still for that read-out and setting: with E2F4 (UniProt Q16254) the figure was inactive: 0.001; with EFHD2 (UniProt Q96C19), inactive: 0.006.
For DPP8 (UniProt Q6V1X1), the log2 fold change was inactive: -0.064.
On the same count and under the same terms, with DSN1 (UniProt Q9H410) the figure was inactive: 0.017; with DUS4L (UniProt O95620), inactive: 0.033; with EEF1E1 (UniProt O43324), inactive: -0.005.
Still for that read-out and setting: the result for DYM (UniProt Q7RTS9) reads inactive: -0.027; that for EFTUD2 (UniProt Q15029), inactive: 0.
EIF2A (UniProt Q9BY44): the log2 fold change was inactive: 0.037.
The same measure, in the same setting: the result for EEF1AKMT2, A0A494BZY7 reads inactive: -0.001.
Take DPY19L1, A0A1B0GW05: the log2 fold change was inactive: 0.008.
Still for that read-out and setting: the result for EDEM1 (UniProt Q92611) reads inactive: 0.022; that for DPYSL2 (UniProt Q16555), inactive: 0.019.
In the case of DUS3L (UniProt Q96G46), the log2 fold change is inactive: 0.014.
Consider DSCC1 (UniProt Q9BVC3), for which the log2 fold change was inactive: -0.011.
Take EHBP1 isoform 2 (UniProt Q8NDI1): the log2 fold change is inactive: 0.047.
In the case of EDARADD (UniProt Q8WWZ3), the log2 fold change was inactive: 0.041.
On the same count and under the same terms, the result for EFHD1 (UniProt Q9BUP0) reads inactive: 0.04; that for DTYMK (UniProt P23919), inactive: -0.017; that for DYNLL2 (UniProt Q96FJ2), inactive: 0.043.
On to DPH7 (UniProt Q9BTV6), for which the log2 fold change was inactive: 0.057.
For the target ECH1 (UniProt Q13011), the log2 fold change was inactive: -0.017.
As for DUSP23 (UniProt Q9BVJ7), the log2 fold change is inactive: 0.019.
Still for that read-out and setting: with DYNLRB1 (UniProt Q9NP97) the figure was inactive: 0.074; with DPP9 isoform 2 (UniProt Q86TI2), inactive: -0.045.
On to DPP7 (UniProt Q9UHL4), for which the log2 fold change is inactive: -0.013.
On to EEF1D isoform 2 (UniProt P29692), for which the log2 fold change was inactive: 0.005.
Regarding EEF1B2 (UniProt P24534), the log2 fold change was inactive: -0.012.
On the same count and under the same terms, the result for DUT (UniProt P33316) reads inactive: -0.034.
Regarding EED, A0A5F9ZI63, the log2 fold change was inactive: -0.016.
The same measure, in the same setting: with DPH6 (UniProt Q7L8W6) the figure was inactive: -0.031.
The same measure, in the same setting: the result for ECT2 (UniProt Q9H8V3) reads inactive: 0.142; that for DUSP3 (UniProt P51452), inactive: 0.025.
On the same count and under the same terms, with DYNC1H1 (UniProt Q14204) the figure was inactive: -0.006; with EIF1AD (UniProt Q8N9N8), inactive: 0.006; with ECI2 (UniProt O75521), inactive: 0.013.
For EBNA1BP2 (UniProt Q99848), the log2 fold change was inactive: -0.012.

Compound in the next test: CC1=C(C=C(C=C1)NC(=O)C2=CC(=CC=C2)N(C)C)NC(=O)C3=CC=C(C=C3)O
The description is as above. The essentials: as §1
For EIF1B (UniProt O60739), the log2 fold change was inactive: -0.156.
The same measure, in the same setting: with EDF1 (UniProt O60869) the figure was inactive: -0.076; with DRAP1 isoform 2 (UniProt Q14919), inactive: -0.002; with E2F4 (UniProt Q16254), inactive: -0.025.
The same measure, in the same setting: with EFHD2 (UniProt Q96C19) the figure was inactive: -0.007.
On the same count and under the same terms, with DPP8 (UniProt Q6V1X1) the figure was inactive: 0.022.
DSN1 (UniProt Q9H410): the log2 fold change is inactive: 0.025.
With DUS4L (UniProt O95620), the log2 fold change was inactive: -0.03.
EEF1E1 (UniProt O43324): the log2 fold change is inactive: -0.006.
Regarding DYM (UniProt Q7RTS9), the log2 fold change is inactive: -0.08.
Still for that read-out and setting: the result for EFTUD2 (UniProt Q15029) reads inactive: -0.006.
With EIF2A (UniProt Q9BY44), the log2 fold change was inactive: 0.002.
Same read-out and setting: the result for EEF1AKMT2, A0A494BZY7 reads inactive: 0.038.
Same read-out and setting: the result for DPY19L1, A0A1B0GW05 reads inactive: 0.065; that for EDEM1 (UniProt Q92611), inactive: 0.115.
Regarding DPYSL2 (UniProt Q16555), the log2 fold change was inactive: 0.029.
On to DUS3L (UniProt Q96G46), for which the log2 fold change was inactive: 0.001.
Same read-out and setting: the result for DSCC1 (UniProt Q9BVC3) reads inactive: -0.047; that for EHBP1 isoform 2 (UniProt Q8NDI1), inactive: 0.066; that for EDARADD (UniProt Q8WWZ3), inactive: 0.017.
Still for that read-out and setting: the result for EFHD1 (UniProt Q9BUP0) reads inactive: 0.015; that for DTYMK (UniProt P23919), inactive: 0.038; that for DYNLL2 (UniProt Q96FJ2), inactive: -0.031.
On the same count and under the same terms, with DPH7 (UniProt Q9BTV6) the figure was inactive: -0.012.
As for ECH1 (UniProt Q13011), the log2 fold change was inactive: -0.018.
As for DUSP23 (UniProt Q9BVJ7), the log2 fold change was inactive: -0.079.
On to DYNLRB1 (UniProt Q9NP97), for which the log2 fold change is inactive: 0.009.
Still for that read-out and setting: with DPP9 isoform 2 (UniProt Q86TI2) the figure was inactive: 0; with DPP7 (UniProt Q9UHL4), inactive: -0.008.
As for EEF1D isoform 2 (UniProt P29692), the log2 fold change is inactive: 0.004.
Still for that read-out and setting: the result for EEF1B2 (UniProt P24534) reads inactive: 0.01; that for DUT (UniProt P33316), inactive: -0.019; that for EED, A0A5F9ZI63, inactive: 0.042.
Same read-out and setting: with DPH6 (UniProt Q7L8W6) the figure was inactive: -0.015; with ECT2 (UniProt Q9H8V3), inactive: 0.056; with DUSP3 (UniProt P51452), inactive: -0.021.
On the same count and under the same terms, with DYNC1H1 (UniProt Q14204) the figure was inactive: 0.031.
Take EIF1AD (UniProt Q8N9N8): the log2 fold change was inactive: -0.004.
Turning to ECI2 (UniProt O75521), the log2 fold change was inactive: 0.007.
For the target EBNA1BP2 (UniProt Q99848), the log2 fold change is inactive: 0.016.
